Hit rate of the full screen: of about 220,000 compounds, about 770 (0.35%) were called active. The shares of active, inactive and inconclusive entries below differ from those in the screen. Cut-off read from the data, not from the text of the source: active = binding response below about 49% or above about 150%; inconclusive = no clear call, values can overlap the other calls; inactive = in between.
Each compound was assayed against Guanine nucleotide-binding protein G(o) subunit alpha (Homo sapiens) (UniProt P09471) (assay: RGS7-Galphao binding modulators, primary screen, biochemical, multiplexed bead flow cytometry (AID 1439;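 note: fluorescent Galphao held in activated GDP-AlF4 state binding bead-coupled RGS7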)). Details: at 10 µM, actives lie on both sides.

Amino acid sequences for entries named in this document (tags omitted).
UniProt P09471, whole entry, looked up: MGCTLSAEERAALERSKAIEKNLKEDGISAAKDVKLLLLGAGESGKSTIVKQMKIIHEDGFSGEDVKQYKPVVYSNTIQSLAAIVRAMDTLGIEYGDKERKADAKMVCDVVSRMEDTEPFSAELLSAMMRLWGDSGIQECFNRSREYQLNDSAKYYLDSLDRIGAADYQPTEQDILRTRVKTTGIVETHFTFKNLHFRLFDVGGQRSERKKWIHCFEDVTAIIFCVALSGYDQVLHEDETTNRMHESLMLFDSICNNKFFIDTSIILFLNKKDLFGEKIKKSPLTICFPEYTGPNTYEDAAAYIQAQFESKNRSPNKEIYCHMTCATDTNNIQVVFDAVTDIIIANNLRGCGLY

| SMILES | binding response (% of control) |
| --- | --- |
| COC(=O)c1c(C)[nH]c(/C=N/Nc2ccccc2)c1C | inconclusive: 176% |
| C=C1C(C(=O)Nc2ccc(F)cc2)C1C(=O)Nc1ccc(F)cc1 (stereo not drawn) | inactive: 101% |
| O=S(=O)(c1ccc2c(c1)OCCO2)N1CCN(c2nc(-c3cccnc3)nc3ccccc23)CC1 | inconclusive: 88.6% |
| O=C1CSC(c2cccnc2)N1Cc1ccc(Cl)cc1 (stereo not drawn) | inconclusive: 115% |
| CCOC(=O)c1cc(C)[nH]c1C | inconclusive: 200% |
| CC1=C(C)CC(C(=O)NCc2ccccn2)C(C(=O)O)C1 (stereo not drawn) | inconclusive: -33.7% |
| O=C1C(C2=NC(c3ccccn3)C3C(=O)N(c4ccc(Cl)cc4Cl)C(=O)C23)=C(O)c2ccccc21 (stereo not drawn) | inconclusive: 104% |
| O=C(CNC(=O)c1ccc(Cl)cc1)OCC(=O)N1CCCC1 | inconclusive: 97.4% |
| O=C(/C=C/c1ccc(F)cc1)N1CCN(S(=O)(=O)/C=C/c2ccccc2)CC1 | inconclusive: 96.2% |
| COc1ccccc1OCCC(=O)N1CCN(c2ccccc2OC)CC1 | inconclusive: 64.8% |
| O=C(/C=C/Sc1ccc(C(F)(F)F)cn1)c1ccccc1 | inconclusive: 103% |
| CCc1ccc(Oc2ncnc(N)c2[N+](=O)[O-])cc1 | inconclusive: 110% |
| Cc1[nH]c2ccccc2c1C(C#N)(C#N)C1C(=O)c2ccccc2C1=O | inconclusive: 98.1% |
| Cc1cc(C)c(O)c(C2(O)C(=O)c3ccccc3C2=O)c1 | inconclusive: -82.9% |
| CC(=O)c1ccc(NC(=O)C2(c3ccccc3)CC2(Cl)Cl)cc1 (stereo not drawn) | inconclusive: 95.4% |
| CCCCNC(=O)COC(=O)c1ccc(N(C)C)cc1 | inconclusive: 88% |
| C#CCOCCOCCOCCNc1nc(N2CCN(C(=O)[C@H](CCC(=O)O)n3cc(C(N)CO)nn3)CC2)nc(N2CCN(C(=O)[C@H](CCCCN)n3cc(C(N)[C@H](C)CC)nn3)CC2)n1 (stereo partly drawn) | inconclusive: 111% |
| COc1ccc(S(=O)(=O)N2CCOCC2)cc1NC(=O)CSc1cccc[n+]1[O-] | inconclusive: 213% |
| COc1ccc2cc1Oc1ccc(cc1)CC1c3c(cc(OC)c4c3Oc3cc5c(cc3O4)CCNC5C2)CCN1C (stereo not drawn) | inconclusive: 129% |
| CCOC(=O)c1cc(-c2ccc(N3CCOCC3)cc2)nn1-c1ccccc1C(=O)O | inconclusive: 126% |
| COC(=O)c1ccc(Cn2c(O)c(N=NC(N)=S)c3ccccc32)o1 | inconclusive: 62.7% |
| CN(C)[C@@H]1C(=O)C(C(=O)NCN2CCCC2)=C(O)[C@@]2(O)C(=O)C3=C(O)c4c(O)cccc4[C@@](C)(O)C3CC12 (stereo partly drawn) | active: 8.28% |

| SMILES | binding response (% of control) |
| --- | --- |
| CCc1ccc(NC(=O)c2ccc3c(=O)n4c(nc3c2)CCCCC4)cc1 | inconclusive: 60% |
| COc1ccccc1N1CCN(C(=O)COc2cc(C)cc(C)c2)CC1 | inconclusive: 109% |
| C/C(=C\C(=O)C(F)(F)F)Nc1cc(C)cc(C)c1 | inactive: 102% |
| Cn1ccnc1C(=O)c1cc(SCC(=O)NCc2ccccc2)nc2ccccc12 | inactive: 108% |
| C/C(=N\NC(=S)NC1CCCCC1)c1ccc(Cl)c(Cl)c1 | inconclusive: 101% |
| CC(=O)c1ccc([C@@H]2C[C@]34CN(Cc5cccc(C(F)(F)F)c5)S(=O)(=O)[C@H]3C[C@H]2O4)cc1 | inconclusive: 105% |
| CCN1CCN(C(c2ccc(F)cc2)c2nnnn2Cc2ccc3c(c2)OCO3)CC1 (stereo not drawn) | inconclusive: 110% |
| CCOc1c(CNc2nnnn2C)cccc1OC | inactive: 94.2% |
| COc1ccccc1CN=C1NC(=O)C(CC(=O)Nc2ccc(C(C)=O)cc2)S1 (stereo not drawn) | inconclusive: 81.9% |
| O=C(CCn1cnc2ncccc2c1=O)N1CCN(c2cccc(Cl)c2)CC1 | inconclusive: 164% |
| Cc1ccc(C2=NOC(C)(c3nnc(-c4ccc(F)cc4)o3)C2)cc1 (stereo not drawn) | inconclusive: 114% |
| CC(=O)c1c(C)nc(-c2cccc([N+](=O)[O-])c2)n1O | inconclusive: 68.2% |
| CCCCCCCC1(C)NC(=O)NC1=O (stereo not drawn) | inconclusive: 99.1% |
| O=C(OCCCN1CCOCC1)c1ccc(O)c(O)c1 | inconclusive: 112% |
| Cc1ccc(-n2ncc(-c3nn[nH]n3)c2N)cc1 | inconclusive: 83.1% |
| CCCNc1nc(C)cc(-c2cc(-c3ccc(Cl)cc3)on2)n1 | inconclusive: 92.6% |
| O=C(CNC(=O)C(c1ccccc1)c1ccccc1)N/N=C\c1cccc(O)c1 | inconclusive: 73.3% |
| COc1ccc(-c2csc(-c3cccs3)n2)cc1OC | inconclusive: 101% |
| NC(N)=NN=C1CCCCCCCCCCC1 | inconclusive: 111% |
| NCCc1nnc(SCc2c(Cl)cccc2Cl)o1 | inconclusive: 115% |
| O=C(Nc1cccc(-c2cn3ccccc3n2)c1)c1ccccc1 | inconclusive: 82.2% |
| O=C(Nc1ccc(-c2nc3ccccc3[nH]2)cc1)c1ccc2c(c1)OCO2 | inactive: 99.5% |

| SMILES | binding response (% of control) |
| --- | --- |
| Cc1ccc2c(c1)Oc1ccc(NC(=O)CCl)cc1C(=O)N2 | inactive: 103% |
| O=C(N/N=C\c1ccc(Cl)s1)c1ccc(Cn2cccn2)o1 | inactive: 98.2% |
| COc1ccc(-c2c(C)nn3c(N4CCC(C(=O)N5CCCCC5)CC4)cc(C)nc23)cc1OC | inconclusive: 110% |
| O=C(Nc1ccccn1)c1onc2c1CCCC2 | inactive: 103% |
| Cc1ccc2nc(/N=C(\N)NC(=O)NC3CCCCC3)nc(C)c2c1 | inconclusive: 39.5% |
| COc1ccc(C2=NOC(COc3ccc4c(C)cc(=O)oc4c3)C2)c(OC)c1 (stereo not drawn) | inconclusive: 91.6% |
| Cc1cc(C)c(NC(=O)c2ccc[n+](Cc3ccc([N+](=O)[O-])cc3)c2)c(C)c1 | inactive: 101% |
| Cn1c(=O)[nH]c(=O)c2c1nc(N1CCOCC1)n2CCSc1nnnn1-c1ccccc1 | inconclusive: 121% |
| CC(CCc1ccccc1)NC(=O)CN1C(=O)NC2(CCCCC2)C1=O (stereo not drawn) | inconclusive: 85.9% |
| O=C(C1=C(O)C(=O)N(CCc2ccccc2)C1c1ccncc1)c1cc2ccccc2o1 (stereo not drawn) | inconclusive: 107% |
| CC(C)[C@H](CO)Nc1nc(NCc2ccc(S(N)(=O)=O)cc2)c2ncn(C(C)C)c2n1 | inconclusive: 91.7% |
| O=C(Nc1ccc(SC(F)F)cc1)c1ccccc1F | inconclusive: 116% |
| NNc1ccc(S(=O)(=O)N2CCCCC2)cn1 | inconclusive: 81.8% |
| CCn1c(COc2cccc3cccnc23)nnc1SCC(=O)OC | inconclusive: 100% |
| COc1ccccc1N(CC(=O)N/N=C/c1ccc(C(=O)O)cc1)S(=O)(=O)c1ccc(C)cc1 | inconclusive: 85.4% |
| COc1cccc(/C=N/N2CCN(C3c4ccccc4-c4ccccc43)CC2)c1O | inconclusive: 90.7% |
| CCOC(=O)C1=C(O)C(=O)N(C2CCCCC2)C1 | inconclusive: 106% |
| CC1(OC(=O)C2CCCC2)C(=O)C=C2C=C(c3ccsc3)N(Cc3ccc4c(c3)OCO4)C=C2C1=O (stereo not drawn) | inconclusive: 86.7% |
| Cc1ccc(S(=O)(=O)N2CCOCC2)cc1NC(=O)CSc1ccccn1 | inconclusive: 97.2% |
| Cc1cc(C(=O)COC(=O)[C@H](C)NC(=O)c2ccco2)c(C)n1Cc1ccco1 | inconclusive: 99.1% |
| CN(C)C(=S)NC(C)(C)C | inconclusive: 74.6% |
| CNC(=O)c1cccc2cccc(Sc3ccccc3C(=O)O)c12 | inconclusive: 96% |

2 of the compounds above, as comma-separated lines.
SMILES,binding response (% of control)
Cc1ccc2nc(/N=C(\N)NC(=O)NC3CCCCC3)nc(C)c2c1,inconclusive: 39.5%
COc1ccc(C2=NOC(COc3ccc4c(C)cc(=O)oc4c3)C2)c(OC)c1 (stereo not drawn),inconclusive: 91.6%

(more compounds)

| SMILES | binding response (% of control) |
| --- | --- |
| Cc1nn(C)cc1CN(C)S(=O)(=O)c1cccc([N+](=O)[O-])c1 | inconclusive: 79.7% |
| Cc1ccc(/C=C2\SC(=S)N(c3cccnc3)C2=O)o1 | inconclusive: 87.7% |
| COC(=O)Cc1cc(=O)[nH]c(/N=C(\N)Nc2ccc(C(C)C)cc2)n1 | inactive: 99.5% |
| Cn1cccc1/C=N/NC(=O)c1ccncc1 | inconclusive: 253% |
| CC(Oc1ncnc2ccccc12)C(=O)Nc1cccc(S(=O)(=O)N2CCOCC2)c1 (stereo not drawn) | inactive: 107% |
| O=C(NNS(=O)(=O)c1ccccc1)c1csc(-c2cccnc2)n1 | inconclusive: 140% |
| COC(=O)c1ccc(NC(=O)CC2C(=O)N(C)C(=S)N2Cc2ccc(S(N)(=O)=O)cc2)cc1 (stereo not drawn) | inconclusive: 88.2% |
| CC(C)NC(=O)C1CCN(C2CCN(C(=O)/C=C/c3cccs3)CC2)CC1 | inconclusive: 101% |
| COc1ccc(/C=C/C(O)=C(\C#N)c2nnc(N3CCOCC3)n2-c2ccccc2)cc1OC | inconclusive: 94.8% |
| COc1ccc(-c2csc(/C(C#N)=C\c3ccc(O)c([N+](=O)[O-])c3)n2)cc1OC | inconclusive: 98.1% |
| CCOc1ccc(NC(=O)CSc2nc3nc4c(cc3c(=O)n2CC)COC(C)(C)C4)cc1 | inconclusive: 172% |
| Cc1sc(Cc2nc(O)cs2)nc1-c1ccccc1 | inactive: 98.2% |
| CCOC(=O)CCC(=O)NCc1ccc2c(c1)cc(C)n2C | inactive: 125% |
| Cc1ccc2c(c1)CCCN2C(=O)c1ccncc1 | inactive: 143% |
| Cc1nc2c(C)cccn2c1C(=O)N/N=C/c1ccccc1[N+](=O)[O-] | inconclusive: 174% |
| COc1cc2c(cc1OC)C(CCc1ccccc1)=NCC2 | inconclusive: -51.5% |
| COC(CNC(=O)c1coc2nc3ccccc3nc12)OC | inconclusive: 99.7% |
| CCCCNC(=S)Nc1cc(S(=O)(=O)N2CCCCC2)ccc1C | inconclusive: 109% |
| Cc1ccc(S(=O)(=O)N(Cc2cc3ccc(C)cc3[nH]c2=O)c2ccccc2)cc1 | inconclusive: 77.5% |
| COc1cc(OC)c(OC)cc1CN1CCC(O)CC1 | inconclusive: 114% |
| Cc1ccccc1OCCn1cnc2cc([N+](=O)[O-])ccc2c1=O | inactive: 71.3% |
| CC1=NNC(=O)C1Cc1ccc(F)cc1 (stereo not drawn) | inconclusive: 63.7% |

Quoted at random: six compounds from above.

| SMILES | binding response (% of control) |
| --- | --- |
| Cn1cccc1/C=N/NC(=O)c1ccncc1 | inconclusive: 253% |
| Cc1ccc(-n2ncc(-c3nn[nH]n3)c2N)cc1 | inconclusive: 83.1% |
| O=C(Nc1ccccn1)c1onc2c1CCCC2 | inactive: 103% |
| COC(=O)Cc1cc(=O)[nH]c(/N=C(\N)Nc2ccc(C(C)C)cc2)n1 | inactive: 99.5% |
| Cc1ccc(C2=NOC(C)(c3nnc(-c4ccc(F)cc4)o3)C2)cc1 (stereo not drawn) | inconclusive: 114% |
| COc1cccc(/C=N/N2CCN(C3c4ccccc4-c4ccccc43)CC2)c1O | inconclusive: 90.7% |
